Laboratory results published in patent publication US20080219971A1.
Where a chain is given by its changes, count along the chain named. These are yes or no findings as the source states them, for the method shown.

B1: MAb 657 (antibody, human IgG1, V domains shown)
VH: QVQLVQSGAEVKKPGSSVKVSCKASGYTFTDYYMDWVRQAPGQGLEWIGRVNPYHGGATYNQKFKGKATITVDKSTSTAYMELSSLRSEDTAVYYCAREENSYDGYYGMDYWGQGTLVTVSS
VL: DIVMTQSPLSLPVSPGEPATINCKSSQSLFNSGNQKNYLAWYLQKPGQPPKLLIYGASTRESGVPDRFSGSGSGTDFTLTISSLQAEDVAVYYCQNDHTYPYTFGQGTKLEIK
B2: MAb 1656 (antibody, human IgG1, V domains shown)
VH: B1 VH with I48M, K67R, A68V, V72A
VL: B1 VL
B3: MAb 1807 (antibody, human IgG4, V domains shown)
VH: B1 VH
VL: B1 VL
B4: MAb 1808 (antibody, human IgG4, V domains shown)
VH: B1 VH with I48M, K67R, A68V, V72A
VL: B1 VL
B5: MAb 301 (antibody, human IgG1, V domains shown)
VH: EVQLQQSGPELVKPGASVKMSCKASGYTFTDYYMDWVKQSHGESFEWIGRVNPYHGGATYNQKFKGKATLTVDKSSRTAYMELNSLTYEDSAVYYCAREENSYDGYYGMDYWGQGTTVTVSS
VL: DIVLTQSPSSLSVSAGEKVTMDCKSSQSLFNSGNQKNYLAWYHQKPGQPPKLLIYGASTRESGVPDRFTGSGSGTDFTLTISSVQAEDLAVYYCQNDHTYPYTFGGGTKLEIK

Columns and labels:
hemoglobin = assay: ELISA
insulin = assay: ELISA

Binder	binding (hemoglobin)	binding (insulin)
B1	no binding	no binding
B2	no binding	no binding
B3	no binding	no binding
B4	no binding	no binding
B5	no binding	no binding
